Tests used:
[1] = test system: surgically induced joint instability; settings: mouse and non-human primate; cited from earlier work
[2] = treated minipigs

CN(C)C(=N)NC(=N)N.Cl [metformin, 1,1-dimethylbiguanide hydrochloride]
prevention or delay of onset of OA [1]: effective at preventing or delaying the onset of OA | changes in blood serum markers related to hypoglycemia and renal and hepatic toxicity [2]: not expected

From patent US20260306428A1 (The Trustees of Indiana University, priority 2023, published 2026)
